Like-named read-outs stand apart in the source and are kept apart here. No constants are given. Whether binding was seen depends on the method and setting. Binding seen in cells or lysates may run through a third protein. Here binding means that the protein was enriched with, or labelled near, the bait; the list need not be complete. Where a sequence is shown, tags or fusion partners need not be part of it.

By UniProt entry, the sequences of proteins in these tests, tags left out. Residues count along the entry.
UniProt P11717, residues 41-2491: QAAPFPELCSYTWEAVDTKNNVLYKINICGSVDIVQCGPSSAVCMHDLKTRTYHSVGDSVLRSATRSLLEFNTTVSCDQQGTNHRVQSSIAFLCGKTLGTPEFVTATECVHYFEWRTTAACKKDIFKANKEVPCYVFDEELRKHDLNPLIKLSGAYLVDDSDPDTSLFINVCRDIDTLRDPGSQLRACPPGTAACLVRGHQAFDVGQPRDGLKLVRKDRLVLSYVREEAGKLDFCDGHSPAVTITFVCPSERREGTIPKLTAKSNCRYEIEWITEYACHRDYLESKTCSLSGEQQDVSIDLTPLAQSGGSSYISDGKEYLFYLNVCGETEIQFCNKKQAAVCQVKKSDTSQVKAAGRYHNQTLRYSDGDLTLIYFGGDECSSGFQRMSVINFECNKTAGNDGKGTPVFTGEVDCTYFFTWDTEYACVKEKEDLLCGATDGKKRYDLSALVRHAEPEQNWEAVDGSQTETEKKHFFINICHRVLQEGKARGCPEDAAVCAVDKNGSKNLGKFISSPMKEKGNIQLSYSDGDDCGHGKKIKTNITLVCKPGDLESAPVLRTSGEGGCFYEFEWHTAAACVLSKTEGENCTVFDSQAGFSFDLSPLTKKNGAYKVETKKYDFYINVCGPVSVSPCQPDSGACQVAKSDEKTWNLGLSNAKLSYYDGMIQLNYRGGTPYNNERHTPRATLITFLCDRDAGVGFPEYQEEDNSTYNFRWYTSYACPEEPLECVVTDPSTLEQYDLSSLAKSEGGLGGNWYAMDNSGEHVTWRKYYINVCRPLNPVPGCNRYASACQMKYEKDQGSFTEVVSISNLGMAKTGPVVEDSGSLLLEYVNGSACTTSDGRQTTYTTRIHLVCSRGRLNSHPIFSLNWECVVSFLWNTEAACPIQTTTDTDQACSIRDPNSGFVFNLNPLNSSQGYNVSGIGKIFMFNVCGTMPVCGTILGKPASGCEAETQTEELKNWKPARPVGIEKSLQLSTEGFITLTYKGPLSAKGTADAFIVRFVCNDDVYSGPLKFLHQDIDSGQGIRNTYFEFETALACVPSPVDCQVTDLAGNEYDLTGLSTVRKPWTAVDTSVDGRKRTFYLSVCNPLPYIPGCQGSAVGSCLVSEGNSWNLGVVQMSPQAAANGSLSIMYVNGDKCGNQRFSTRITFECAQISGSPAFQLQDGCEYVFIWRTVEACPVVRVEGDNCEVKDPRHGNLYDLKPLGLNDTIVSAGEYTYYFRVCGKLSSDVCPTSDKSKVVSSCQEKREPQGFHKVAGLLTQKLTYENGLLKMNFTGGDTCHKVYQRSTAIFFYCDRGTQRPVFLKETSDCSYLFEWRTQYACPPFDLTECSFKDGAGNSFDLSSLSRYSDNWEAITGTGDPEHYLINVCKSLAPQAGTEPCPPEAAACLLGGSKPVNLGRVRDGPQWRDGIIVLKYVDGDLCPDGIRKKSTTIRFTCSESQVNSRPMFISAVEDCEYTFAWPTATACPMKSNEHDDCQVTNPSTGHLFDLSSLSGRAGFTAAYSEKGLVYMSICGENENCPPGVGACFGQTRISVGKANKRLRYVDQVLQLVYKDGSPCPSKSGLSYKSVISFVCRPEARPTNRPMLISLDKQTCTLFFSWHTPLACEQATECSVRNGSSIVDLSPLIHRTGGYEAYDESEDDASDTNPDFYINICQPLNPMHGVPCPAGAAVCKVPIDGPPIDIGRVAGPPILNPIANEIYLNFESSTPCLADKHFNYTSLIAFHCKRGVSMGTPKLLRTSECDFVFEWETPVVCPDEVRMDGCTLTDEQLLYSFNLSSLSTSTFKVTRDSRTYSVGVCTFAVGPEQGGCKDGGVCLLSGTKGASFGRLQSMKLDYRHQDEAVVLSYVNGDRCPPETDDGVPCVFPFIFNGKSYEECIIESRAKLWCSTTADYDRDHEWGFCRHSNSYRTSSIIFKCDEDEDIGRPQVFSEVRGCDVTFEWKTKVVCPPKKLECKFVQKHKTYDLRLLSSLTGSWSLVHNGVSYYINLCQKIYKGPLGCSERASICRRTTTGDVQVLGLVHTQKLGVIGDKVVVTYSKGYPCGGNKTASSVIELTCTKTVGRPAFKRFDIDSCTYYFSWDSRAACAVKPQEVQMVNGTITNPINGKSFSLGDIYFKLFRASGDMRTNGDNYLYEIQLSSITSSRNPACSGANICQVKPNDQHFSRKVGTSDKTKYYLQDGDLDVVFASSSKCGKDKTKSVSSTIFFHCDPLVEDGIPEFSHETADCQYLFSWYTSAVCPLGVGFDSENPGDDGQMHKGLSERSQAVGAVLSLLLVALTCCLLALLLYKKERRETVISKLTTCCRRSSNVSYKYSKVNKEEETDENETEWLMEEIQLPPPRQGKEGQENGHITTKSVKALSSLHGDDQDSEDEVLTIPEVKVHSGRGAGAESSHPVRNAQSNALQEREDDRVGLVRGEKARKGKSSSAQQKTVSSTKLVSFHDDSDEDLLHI

The target of test [1] is T1, EPDR1^FLAG (full-length human EPDR1 1-224 with C-terminal GGGGS linker and FLAG tag) (human) (UniProt Q9UM22).
T1 sequence: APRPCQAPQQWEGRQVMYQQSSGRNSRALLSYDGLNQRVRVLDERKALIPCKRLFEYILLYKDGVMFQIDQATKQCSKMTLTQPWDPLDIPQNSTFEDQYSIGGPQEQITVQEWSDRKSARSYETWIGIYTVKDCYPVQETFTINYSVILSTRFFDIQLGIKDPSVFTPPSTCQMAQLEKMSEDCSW
The experiment in a line: affinity purification with mass spectrometry; EPDR1^FLAG from culture medium pre-bound to anti-FLAG M2 agarose beads, incubated 1 h at 4 C with lysate of untransfected U-87MG cells (50 mM HEPES pH 7.5, 150 mM NaCl, 1% n-dodecyl beta-D-maltoside); control: medium of cells with empty vector; LC-MS/MS, MaxLFQ.

Test [2] concerns the target T1, EPDR1^FLAG (full-length human EPDR1 1-224 with C-terminal GGGGS linker and FLAG tag) (human). The description is as above. This is another data set of the same source.

“insulin-like growth factor 2 receptor (from UniProt P11717 41-2491)”: the binding result in test [1] is “binds”.

B1: flotillin-2 (protein, UniProt Q14254 1-428)
chain: MGNCHTVGPNEALVVSGGCCGSDYKQYVFGGWAWAWWCISDTQRISLEIMTLQPRCEDVETAEGVALTVTGVAQVKIMTEKELLAVACEQFLGKNVQDIKNVVLQTLEGHLRSILGTLTVEQIYQDRDQFAKLVREVAAPDVGRMGIEILSFTIKDVYDKVDYLSSLGKTQTAVVQRDADIGVAEAERDAGIREAECKKEMLDVKFMADTKIADSKRAFELQKSAFSEEVNIKTAEAQLAYELQGAREQQKIRQEEIEIEVVQRKKQIAVEAQEILRTDKELIATVRRPAEAEAHRIQQIAEGEKVKQVLLAQAEAEKIRKIGEAEAAVIEAMGKAEAERMKLKAEAYQKYGDAAKMALVLEALPQIAAKIAAPLTKVDEIVVLSGDNSKVTSEVNRLLAELPASVHALTGVDLSKIPLIKKATGVQV
Turning to B1, the binding entry in test [2] is listed as “binds”.

B2: flotillin-1 (protein, UniProt O75955 1-427)
chain: MFFTCGPNEAMVVSGFCRSPPVMVAGGRVFVLPCIQQIQRISLNTLTLNVKSEKVYTRHGVPISVTGIAQVKIQGQNKEMLAAACQMFLGKTEAEIAHIALETLEGHQRAIMAHMTVEEIYKDRQKFSEQVFKVASSDLVNMGISVVSYTLKDIHDDQDYLHSLGKARTAQVQKDARIGEAEAKRDAGIREAKAKQEKVSAQYLSEIEMAKAQRDYELKKAAYDIEVNTRRAQADLAYQLQVAKTKQQIEEQRVQVQVVERAQQVAVQEQEIARREKELEARVRKPAEAERYKLERLAEAEKSQLIMQAEAEAASVRMRGEAEAFAIGARARAEAEQMAKKAEAFQLYQEAAQLDMLLEKLPQVAEEISGPLTSANKITLVSSGSGTMGAAKVTGEVLDILTRLPESVERLTGVSISQVNHKPLRTA
Consider B2, for which, in test [2], the binding result was “binds”.
